Test results reported in publication doi:10.1101/2023.08.03.551696.
Results are given in words; binding and its absence hold for the method and conditions named. In cells and extracts the contact can be indirect. Tags and fused reporters may be left off the sequences shown.

Amino acid sequences for entries named in this document (tags omitted). A change or cut given only in a name is not applied to a line headed by its entry.
UniProt P01584: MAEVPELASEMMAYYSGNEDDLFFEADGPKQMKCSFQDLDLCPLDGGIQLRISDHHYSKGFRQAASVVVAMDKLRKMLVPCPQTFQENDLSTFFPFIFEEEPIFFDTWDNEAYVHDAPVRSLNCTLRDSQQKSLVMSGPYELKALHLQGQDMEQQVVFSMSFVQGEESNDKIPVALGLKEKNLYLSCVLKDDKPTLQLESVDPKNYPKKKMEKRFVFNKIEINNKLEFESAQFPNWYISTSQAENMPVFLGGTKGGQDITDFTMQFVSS

Molecular target: T1, MxA-V5 (myxovirus resistant protein 1, V5-tagged) (human) (UniProt P20591)
T1 sequence: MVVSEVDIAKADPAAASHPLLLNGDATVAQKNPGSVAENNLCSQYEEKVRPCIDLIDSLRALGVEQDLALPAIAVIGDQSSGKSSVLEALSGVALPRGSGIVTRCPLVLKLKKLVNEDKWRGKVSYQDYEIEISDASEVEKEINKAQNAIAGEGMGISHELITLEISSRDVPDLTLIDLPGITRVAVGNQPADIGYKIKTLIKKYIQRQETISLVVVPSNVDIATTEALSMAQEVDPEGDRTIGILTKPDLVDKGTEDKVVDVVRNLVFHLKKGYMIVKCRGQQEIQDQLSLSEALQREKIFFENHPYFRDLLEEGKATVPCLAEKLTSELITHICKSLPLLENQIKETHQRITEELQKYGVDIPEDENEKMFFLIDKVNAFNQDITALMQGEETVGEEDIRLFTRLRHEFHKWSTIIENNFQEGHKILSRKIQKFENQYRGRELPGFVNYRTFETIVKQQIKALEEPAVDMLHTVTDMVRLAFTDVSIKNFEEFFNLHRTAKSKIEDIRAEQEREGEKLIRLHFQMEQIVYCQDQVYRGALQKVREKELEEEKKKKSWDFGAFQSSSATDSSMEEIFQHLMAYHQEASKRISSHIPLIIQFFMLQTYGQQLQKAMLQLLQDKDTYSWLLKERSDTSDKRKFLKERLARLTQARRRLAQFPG
Assay: co-IP

How did the binding turn out when “pro-IL-1β (endogenous) (from UniProt P01584)” was run?
The binding was “no binding”.
